In all, about 340,000 compounds went through this assay and about 6,200 (1.8%) were called active. The shares of active, inactive and inconclusive entries below differ from those in the screen. Calls follow the shape of the dose curve; as a rule, active = well fitted activation curve with a large enough effect; inconclusive = small, poorly fitted or top-dose-only effect; inactive = no such curve, though single readings can be large or run the other way. Where the call is inconclusive, the potency comes from a doubtful curve fit.
Assay: A quantitative high throughput screen for small molecules that induce DNA re-replication in SW480 colon adenocarcinoma cells. Also: nearly all actives have a fitted effect of over 55% in size. As to re-replication activation: % of control where 0% means no effect.
Conditions: Hoechst DNA content imaging, 48 h; re-replication activation: at 46.1 µM (top of the series) unless noted
Method in brief: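 SW480 cells exposed to compounds for 48 hr at 37 C, 5% CO2, then Hoechst-stained 40 min. Nuclear DNA content imaged by fluorescence scanning (405 nm excitation, 500-530 nm emission); re-replication scored as increased high-intensity nuclei.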
Potency is read from the fitted curve at half-maximal effect.

| Structure (SMILES) | Potency | re-replication activation |
| --- | --- | --- |
| CN(C)CC(=O)c1ccc(-c2ccccc2)cc1 | inconclusive: 31.6 µM [activator, single point] | – |
| CCCCNC(=O)c1sc2ncnc(N3CCc4ccccc4C3)c2c1C | inactive | – |
| Cc1cc(C)cc(NC(=O)CC2Oc3ccc(C)cc3NC2=O)c1 (configuration not stated) | inactive | – |
| O=C(COc1ccccc1[N+](=O)[O-])N(C1CCCCC1)C1CCS(=O)(=O)C1 (configuration not stated) | inconclusive: 1.16 µM [activator, full curve, poor fit] | – |
| CC(Oc1ccccc1)C(=O)NNC(=O)c1ccccn1 (configuration not stated) | inconclusive: 23.1 µM [activator, partial curve, poor fit] | – |
| COc1ccc(/C=N/NC(=O)c2c(-c3ccccc3)noc2C)cc1[N+](=O)[O-] | inactive | – |
| CCC1Oc2ccc(C)cc2N(CC(=O)N(Cc2ccc(C)o2)C2CCCC2)C1=O (configuration not stated) | inconclusive: 22.4 µM [activator, single point] | – |
| COc1cc2c(cc1OC)CN(c1nc(CN3CCOCC3)nc3sc4c(c13)CCC(C)C4)CC2 (configuration not stated) | inconclusive: 23.1 µM [activator, partial curve, poor fit] | – |
| CC(=O)NC1=NN(C(C)=O)C(C)(c2cccc([N+](=O)[O-])c2)S1 (configuration not stated) | inconclusive: 29.1 µM [activator, single point] | – |
| O=C(CCC1CCN(C(=O)c2cccc(Cl)c2F)CC1)Nc1ccccc1 | – | inconclusive: 67.1% [activator] |
| COc1ccccc1CNC(=O)C1CCCN1S(=O)(=O)c1cccc2cccnc12 (configuration not stated) | inconclusive: 20.6 µM [activator, partial curve, poor fit] | – |
| O=C(Nc1ccccc1)Nc1ccc(Cl)nc1Cl | inconclusive: 29.1 µM [activator, single point] | – |
| Cn1ncc(Cl)c1C(=O)N/N=C/c1ccccn1 | inconclusive: 23.1 µM [activator, single point] | – |
| Cc1[nH]c2ccccc2c1C(=O)C(=O)N1CC=C(c2ccccc2)CC1 | inconclusive: 29.1 µM [activator, single point] | – |
| Cc1ccc2c(c1)N(CCC(=O)NC1CCCCC1C)C(=O)CO2 (configuration not stated) | inactive | – |
| Cc1cccc(NC(=O)c2cccc3c2-c2ccccc2C3=O)n1 | inconclusive: 16.4 µM [activator, single point] | – |
| CCc1nnc(NC(=O)c2ccc(-c3ccc(F)cc3)o2)s1 | inconclusive: 18.4 µM [activator, single point] | – |
| Cc1cc(NC(=O)CSc2nnc(CNc3ccc(F)cc3)n2C2CCCCC2)no1 | inconclusive: 35.5 µM [activator, partial curve, poor fit] | – |
| CC1CCc2onc(C(=O)NCc3ccco3)c2C1 (configuration not stated) | inconclusive: 18.4 µM [activator, single point] | – |
| CCOc1ccc(/C=C/c2nc(C#N)c(NCCCOC)o2)cc1 | active: 2.06 µM | – |
| CCn1ncc([N+](=O)[O-])c1C(=O)NC1CCCCC1 | inconclusive: 1.64 µM [activator, partial curve, poor fit] | – |
| COc1ccc(OC)c(S(=O)(=O)NCCOC23CC4CC(CC(C4)C2)C3)c1 | inconclusive: 32.6 µM [activator, partial curve, poor fit] | – |
| Cc1cc(C(F)(F)F)cc(NNC(=O)NC(=O)c2ccccc2Cl)n1 | inconclusive: 0.206 µM [activator, full curve, poor fit] | – |
| COc1ccc(-c2cc(C(F)(F)F)n3nc(C(=O)N4CCCCC4)cc3n2)cc1 | inactive | – |

Record cards, as listed above:
Cc1[nH]c2ccccc2c1C(=O)C(=O)N1CC=C(c2ccccc2)CC1 is listed with Potency: inconclusive: 29.1 µM [activator, single point]
CC(=O)NC1=NN(C(C)=O)C(C)(c2cccc([N+](=O)[O-])c2)S1 (configuration not stated) is listed with Potency: inconclusive: 29.1 µM [activator, single point]
CC(Oc1ccccc1)C(=O)NNC(=O)c1ccccn1 (configuration not stated) is listed with Potency: inconclusive: 23.1 µM [activator, partial curve, poor fit]

Continuation.

| Structure (SMILES) | Potency | re-replication activation |
| --- | --- | --- |
| CC(C)(C)OC(=O)NCCCCCNC(=O)c1[nH]cnc1C(=O)NC1CCN(C(=O)OC(C)(C)C)CC1 | inconclusive: 29.1 µM [activator, single point] | – |
| Cc1ccc(S(=O)(=O)NCC(=O)NCC(=O)N(C)Cc2ccc3ccccc3c2)cc1C | inactive | – |
| CC(OC(=O)c1cccc(S(=O)(=O)N(C)C)c1)C(=O)NCc1ccc2c(c1)OCO2 (configuration not stated) | inactive | – |
| O=C(O)C1=C[C@@H](c2coc3ccccc3c2=O)C[C@@H](OCc2ccc(CO)cc2)O1 | inactive | – |
| CCN1C(=NCCc2cccnc2)N[C@@H](c2ccccc2)C(C(=O)OC)=C1C | inconclusive: 0.103 µM [activator, full curve, poor fit] | – |
| CC1(C)Cc2c(c(N3CCOCC3)nc3snc(NC(=O)c4ccccc4)c23)CO1 | inactive | – |
| Cc1ccc(-n2[nH]c(C)c(/C=N/Nc3ccc([N+](=O)[O-])cc3[N+](=O)[O-])c2=O)cc1 | inconclusive: 32.6 µM [activator, partial curve, poor fit] | – |
| Nc1[nH]n(-c2ccccc2)c(=O)c1N=Nc1ccc2c(c1)OCCO2 | inactive | – |
| Cc1ccc(C(=O)/C=C/c2ccc3c(c2)OCO3)o1 | inactive | – |
| O=C1COc2ccc(-c3csc(NCCc4ccccc4)n3)cc2N1 | inactive | – |
| COc1ccc(S(=O)(=O)NCC2CCCN(Cc3ccc(C)o3)C2)cc1 (configuration not stated) | inconclusive: 1.46 µM [activator, single point] | – |
| Cc1cnc(NC(=O)CSc2ccccc2)s1 | inactive | – |
| COc1ccc(C(=O)N/N=C/c2ccc(SC)cc2)cc1 | active: 5.17 µM | – |
| O=C(c1cc2ccccc2o1)N1CCN(c2ncccn2)CC1 | inactive | – |
| COCC(=O)Nc1ccc(Br)c(C)c1 | inconclusive: 0.58 µM [activator, full curve, poor fit] | – |
| Cc1c(CN2CCC(CO)(Cc3cccc(C(F)(F)F)c3)CC2)c2ccccc2n1C | inconclusive: 18.4 µM [activator, single point] | – |
| O=C(Cc1cccs1)Nc1nnc(SCc2ccc(C(F)(F)F)cc2)s1 | inactive | – |
| C=CCNC(=S)/N=c1/scc(C)n1C | inactive | – |
| Nc1ncncc1-c1ccc([N+](=O)[O-])cc1 | inconclusive: 20.6 µM [activator, single point] | – |
| O=Nc1ccc(NOC(=O)c2ccccc2Br)cc1 | inconclusive: 20.6 µM [activator, single point] | – |
| O=S(=O)(NCCN1CCOCC1)c1cccc(C(F)(F)F)c1 | inconclusive: 0.411 µM [activator, full curve, poor fit] | – |
| CCC(C)NC(=S)Nc1ccc2nc(N3CCOCC3)cc(C)c2c1 (configuration not stated) | inactive | – |
| COc1ccccc1NS(=O)(=O)c1cc(NC(=O)CCc2nc3ccccc3c(=O)[nH]2)ccc1C | inconclusive: 16.4 µM [activator, single point] | – |
| CCOc1ccc(NC(=O)CN(C)C(=O)c2cccc(S(=O)(=O)N3CCCC3)c2)cc1OCC | active: 6.51 µM | – |

| Structure (SMILES) | Potency | re-replication activation |
| --- | --- | --- |
| CN1CCC/C1=C1/C(=O)N(c2ccccc2)N=C1NC(=O)Nc1cccc(Cl)c1 | inconclusive: 0.92 µM [activator, full curve, poor fit] | – |
| C=CCn1cc(CN2CCC(C(=O)Nc3cccc(-c4cccc(F)c4)c3)CC2)c(C)n1 | inconclusive: 23.1 µM [activator, single point] | – |
| Cc1ccc(S(=O)(=O)CCC(=O)N2CCN(c3ccc([N+](=O)[O-])cc3)CC2)cc1 | inconclusive: 18.4 µM [activator, single point] | – |
| O=C1CSC(=S)N1Cc1cccnc1 | inactive | – |
| CCOC(=O)c1c(-c2ccccc2)oc2ccc(OCC)cc12 | inactive | – |
| CN(Cc1ccon1)C(=O)C1CCN(C2CCN(CCCc3ccccc3)CC2)CC1 | inactive | – |
| CCOc1ccccc1NC(=O)CCn1ccnc1 | inconclusive: 29.1 µM [activator, single point] | – |
| Cc1ccc(NC(=O)c2ccc([N+](=O)[O-])o2)cc1S(=O)(=O)N1CCOCC1 | active: 1.46 µM | – |
| CC1(C)OC(c2ccccc2)=C/C(=C\C=N\NC(=O)c2ccncc2)O1 | inactive | – |
| COC(=O)c1[nH]c2c(c1C)C(=O)CC(c1ccccc1)C2 (configuration not stated) | inactive | – |
| CC(C)C(=O)Nc1cccc(COc2ccccc2CN(Cc2ccccc2)C(=O)OC(C)(C)C)c1 | inconclusive: 0.13 µM [activator, full curve, poor fit] | – |
| Cc1ccc(NC(=O)c2ccc(=O)[nH]n2)cc1S(=O)(=O)Nc1ccc(SC(F)F)cc1 | inactive | – |
| NC(=O)c1cc(-c2csc(NCCc3ccccc3)n2)ccc1O | inconclusive: 5.17 µM [activator, full curve, poor fit] | – |
| COc1ccc(N2CCN(C3CCCN(C(=O)CN4CCCCC4=O)C3)CC2)cc1 (configuration not stated) | inconclusive: 28.2 µM [activator, single point] | – |
| O=C(NC(Cc1ccccc1)C(=O)O)c1ccco1 (configuration not stated) | inconclusive: 7.31 µM [activator, partial curve, poor fit] | – |
| CC[C@@H]1C(c2cccc(Cl)c2)=NN(c2ccc(Br)cc2)[C@H]1C(=O)N1CCOC1=O | active: 10.3 µM | – |
| CCCNC(=O)c1cc2nc(-c3ccccc3)cc(C(F)(F)F)n2n1 | inconclusive: 29.1 µM [activator, single point] | – |
| COc1cc(NC(=O)C2CCN(S(=O)(=O)c3cccs3)CC2)cc(OC)c1 | inconclusive: 25.9 µM [activator, partial curve, poor fit] | – |
| COc1ccc(C(C)=O)cc1COC(=O)C1CCN(C(=O)c2ccc(Cl)cc2)CC1 | inactive | – |
| COc1ccc(CC(=O)N/N=C/c2c(C)n(C)c3ccccc23)cc1OC | active: 14.6 µM | – |
| Cc1ccc2occ(/C=C/C(=O)c3ccccc3O)c(=O)c2c1 | inactive | – |
| Cc1ccc(-c2nnc(SCC(=O)N/N=C/c3ccc(C)s3)n2-c2ccccc2)cc1 | inconclusive: 29.1 µM [activator, single point] | – |
| Cc1ccc(SCC(=O)Nc2ccc(N3CCOCC3)cc2)c(C)c1 | inactive | – |
| O=C(COc1ccc(Br)cc1)NNC(=O)c1cc(S(=O)(=O)N2CCOCC2)ccc1Cl | inactive | – |

— PubChem BioAssay AID624297 (National Center for Advancing Translational Sciences (NCATS), 2012)
